What all share (test): affinity purification with mass spectrometry; FLAG-tagged full-length GIG or BTB bait expressed in HEK293 cells for 28 hours, purified on flag beads, eluted with 3X flag peptide, NanoLC MALDI-TOF/TOF; untransfected cells as negative control; hits parsed at 80% and 98% CI
In assay [1] the target is T1, truncated gigaxonin lacking the Kelch domain ("BTB" domain bait) (UniProt Q9H2C0).
T1 sequence: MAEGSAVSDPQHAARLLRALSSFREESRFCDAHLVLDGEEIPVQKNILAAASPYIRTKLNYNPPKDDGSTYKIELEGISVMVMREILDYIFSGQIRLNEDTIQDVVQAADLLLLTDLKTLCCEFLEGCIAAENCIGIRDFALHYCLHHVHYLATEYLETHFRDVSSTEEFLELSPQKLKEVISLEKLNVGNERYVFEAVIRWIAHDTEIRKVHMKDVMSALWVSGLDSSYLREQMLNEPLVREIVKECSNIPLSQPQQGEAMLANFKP

By UniProt entry, the sequences of proteins in these tests, tags left out.
UniProt O75592: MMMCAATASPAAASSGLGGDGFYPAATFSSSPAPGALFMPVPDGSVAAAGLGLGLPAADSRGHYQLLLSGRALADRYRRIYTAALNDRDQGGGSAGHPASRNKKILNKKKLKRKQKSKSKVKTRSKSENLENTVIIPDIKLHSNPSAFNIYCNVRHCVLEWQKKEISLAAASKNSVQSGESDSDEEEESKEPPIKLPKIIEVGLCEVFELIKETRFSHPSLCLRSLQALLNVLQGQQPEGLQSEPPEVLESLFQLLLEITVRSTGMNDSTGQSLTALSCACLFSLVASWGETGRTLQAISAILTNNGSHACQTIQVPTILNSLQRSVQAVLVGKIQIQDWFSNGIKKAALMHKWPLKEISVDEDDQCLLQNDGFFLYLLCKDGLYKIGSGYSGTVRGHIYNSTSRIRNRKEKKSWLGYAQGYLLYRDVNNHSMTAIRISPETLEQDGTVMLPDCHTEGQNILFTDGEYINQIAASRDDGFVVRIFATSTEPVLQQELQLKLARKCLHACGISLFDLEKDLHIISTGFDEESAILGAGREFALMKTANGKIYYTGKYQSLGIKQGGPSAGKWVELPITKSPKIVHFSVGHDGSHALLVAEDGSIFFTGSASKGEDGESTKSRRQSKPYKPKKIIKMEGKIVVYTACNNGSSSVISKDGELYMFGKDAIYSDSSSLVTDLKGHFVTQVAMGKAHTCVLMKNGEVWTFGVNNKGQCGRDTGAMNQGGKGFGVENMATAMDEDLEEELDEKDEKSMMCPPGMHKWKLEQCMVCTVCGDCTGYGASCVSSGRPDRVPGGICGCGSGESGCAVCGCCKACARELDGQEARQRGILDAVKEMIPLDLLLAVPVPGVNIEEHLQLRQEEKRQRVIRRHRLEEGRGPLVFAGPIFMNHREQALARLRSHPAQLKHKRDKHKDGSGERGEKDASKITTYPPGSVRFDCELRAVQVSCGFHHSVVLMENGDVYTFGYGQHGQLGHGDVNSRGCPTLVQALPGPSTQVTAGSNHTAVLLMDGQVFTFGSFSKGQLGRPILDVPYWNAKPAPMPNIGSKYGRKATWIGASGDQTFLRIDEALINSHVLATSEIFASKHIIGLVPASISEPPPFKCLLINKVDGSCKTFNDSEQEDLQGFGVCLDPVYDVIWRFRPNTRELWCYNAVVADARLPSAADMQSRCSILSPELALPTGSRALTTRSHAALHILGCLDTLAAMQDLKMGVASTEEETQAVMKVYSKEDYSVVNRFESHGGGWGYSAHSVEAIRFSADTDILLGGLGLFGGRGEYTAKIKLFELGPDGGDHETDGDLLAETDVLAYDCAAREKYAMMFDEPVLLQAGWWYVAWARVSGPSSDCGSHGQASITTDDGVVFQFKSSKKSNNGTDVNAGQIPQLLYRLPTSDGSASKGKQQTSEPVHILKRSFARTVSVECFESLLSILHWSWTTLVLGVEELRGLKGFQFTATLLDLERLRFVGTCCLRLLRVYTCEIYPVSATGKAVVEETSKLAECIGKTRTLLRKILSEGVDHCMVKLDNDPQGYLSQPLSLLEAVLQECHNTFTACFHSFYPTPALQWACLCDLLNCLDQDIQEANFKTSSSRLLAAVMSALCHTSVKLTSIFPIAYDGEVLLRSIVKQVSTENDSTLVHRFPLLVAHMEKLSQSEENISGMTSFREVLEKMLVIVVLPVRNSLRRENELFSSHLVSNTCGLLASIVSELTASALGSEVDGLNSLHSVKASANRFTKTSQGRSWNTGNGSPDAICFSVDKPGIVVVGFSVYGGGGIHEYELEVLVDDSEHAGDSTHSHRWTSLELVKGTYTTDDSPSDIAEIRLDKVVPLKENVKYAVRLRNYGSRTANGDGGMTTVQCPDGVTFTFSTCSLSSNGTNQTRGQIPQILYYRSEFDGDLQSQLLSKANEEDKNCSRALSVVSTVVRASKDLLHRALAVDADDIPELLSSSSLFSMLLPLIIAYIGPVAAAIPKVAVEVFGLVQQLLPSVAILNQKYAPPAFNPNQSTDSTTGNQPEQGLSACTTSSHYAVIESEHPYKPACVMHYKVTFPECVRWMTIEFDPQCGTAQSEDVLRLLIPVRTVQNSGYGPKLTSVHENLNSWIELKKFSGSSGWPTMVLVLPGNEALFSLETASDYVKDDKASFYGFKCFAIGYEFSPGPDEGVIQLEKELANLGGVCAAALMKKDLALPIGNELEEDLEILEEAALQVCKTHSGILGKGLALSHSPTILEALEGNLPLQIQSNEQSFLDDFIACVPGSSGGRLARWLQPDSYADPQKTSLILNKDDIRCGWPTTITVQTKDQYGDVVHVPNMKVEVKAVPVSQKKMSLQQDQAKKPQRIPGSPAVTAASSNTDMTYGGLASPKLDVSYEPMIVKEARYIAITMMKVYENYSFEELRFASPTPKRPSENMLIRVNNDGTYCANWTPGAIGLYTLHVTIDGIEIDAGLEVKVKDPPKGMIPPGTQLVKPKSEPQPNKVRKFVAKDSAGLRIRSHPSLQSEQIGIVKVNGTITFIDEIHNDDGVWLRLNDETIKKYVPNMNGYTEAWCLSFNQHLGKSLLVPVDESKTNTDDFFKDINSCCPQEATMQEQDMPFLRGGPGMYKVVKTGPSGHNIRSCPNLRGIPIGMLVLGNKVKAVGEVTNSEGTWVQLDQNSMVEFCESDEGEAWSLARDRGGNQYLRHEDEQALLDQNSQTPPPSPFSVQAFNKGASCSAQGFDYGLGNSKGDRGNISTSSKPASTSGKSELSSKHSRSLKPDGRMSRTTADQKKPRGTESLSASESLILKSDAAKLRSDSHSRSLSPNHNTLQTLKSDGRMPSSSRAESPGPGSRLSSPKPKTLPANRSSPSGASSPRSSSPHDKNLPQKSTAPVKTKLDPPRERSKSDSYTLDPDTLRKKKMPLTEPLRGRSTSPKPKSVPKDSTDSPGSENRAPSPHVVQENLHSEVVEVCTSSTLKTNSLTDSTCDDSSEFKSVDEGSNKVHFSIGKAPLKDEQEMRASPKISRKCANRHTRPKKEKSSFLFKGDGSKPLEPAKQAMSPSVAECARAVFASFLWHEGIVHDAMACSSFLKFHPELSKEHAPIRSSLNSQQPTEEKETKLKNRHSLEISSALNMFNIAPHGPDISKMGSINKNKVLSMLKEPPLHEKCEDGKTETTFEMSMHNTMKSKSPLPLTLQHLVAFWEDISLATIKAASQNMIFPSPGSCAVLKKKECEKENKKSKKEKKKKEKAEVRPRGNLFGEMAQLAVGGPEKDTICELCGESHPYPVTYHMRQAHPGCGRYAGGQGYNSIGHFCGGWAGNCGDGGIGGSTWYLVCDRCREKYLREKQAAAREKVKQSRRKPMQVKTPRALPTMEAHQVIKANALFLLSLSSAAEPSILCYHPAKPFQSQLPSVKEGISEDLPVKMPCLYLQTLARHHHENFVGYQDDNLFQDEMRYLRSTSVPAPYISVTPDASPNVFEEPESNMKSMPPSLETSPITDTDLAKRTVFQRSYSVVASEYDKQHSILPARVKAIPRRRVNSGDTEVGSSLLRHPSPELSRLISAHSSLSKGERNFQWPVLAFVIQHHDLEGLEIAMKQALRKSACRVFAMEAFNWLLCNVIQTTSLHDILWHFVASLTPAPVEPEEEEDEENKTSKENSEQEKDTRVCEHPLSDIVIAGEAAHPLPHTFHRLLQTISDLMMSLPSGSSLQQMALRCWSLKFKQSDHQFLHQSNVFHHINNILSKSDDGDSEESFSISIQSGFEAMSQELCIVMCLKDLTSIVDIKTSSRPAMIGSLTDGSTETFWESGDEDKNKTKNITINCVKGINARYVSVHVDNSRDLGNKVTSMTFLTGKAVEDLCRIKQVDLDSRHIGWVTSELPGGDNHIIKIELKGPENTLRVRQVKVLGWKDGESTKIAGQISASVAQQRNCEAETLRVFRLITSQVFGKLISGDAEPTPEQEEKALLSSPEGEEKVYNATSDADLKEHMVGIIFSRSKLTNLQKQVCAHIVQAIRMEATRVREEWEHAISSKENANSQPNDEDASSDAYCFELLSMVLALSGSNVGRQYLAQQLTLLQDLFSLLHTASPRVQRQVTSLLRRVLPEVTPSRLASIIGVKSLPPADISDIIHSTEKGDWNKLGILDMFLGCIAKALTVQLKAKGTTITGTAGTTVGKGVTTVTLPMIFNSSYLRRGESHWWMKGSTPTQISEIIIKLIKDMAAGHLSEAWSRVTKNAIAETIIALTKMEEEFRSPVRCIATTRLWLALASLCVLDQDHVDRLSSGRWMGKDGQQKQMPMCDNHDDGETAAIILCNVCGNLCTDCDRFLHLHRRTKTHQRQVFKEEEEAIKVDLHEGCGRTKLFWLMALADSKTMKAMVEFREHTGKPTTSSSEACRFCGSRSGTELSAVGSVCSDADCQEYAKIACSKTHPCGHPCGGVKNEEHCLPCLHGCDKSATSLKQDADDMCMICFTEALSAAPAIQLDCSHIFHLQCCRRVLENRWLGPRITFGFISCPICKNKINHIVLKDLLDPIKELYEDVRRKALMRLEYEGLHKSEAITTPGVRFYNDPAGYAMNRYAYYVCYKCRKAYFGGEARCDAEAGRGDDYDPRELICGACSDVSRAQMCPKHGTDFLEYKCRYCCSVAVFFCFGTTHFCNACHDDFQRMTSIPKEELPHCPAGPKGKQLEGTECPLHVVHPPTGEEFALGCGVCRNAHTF
UniProt P08670: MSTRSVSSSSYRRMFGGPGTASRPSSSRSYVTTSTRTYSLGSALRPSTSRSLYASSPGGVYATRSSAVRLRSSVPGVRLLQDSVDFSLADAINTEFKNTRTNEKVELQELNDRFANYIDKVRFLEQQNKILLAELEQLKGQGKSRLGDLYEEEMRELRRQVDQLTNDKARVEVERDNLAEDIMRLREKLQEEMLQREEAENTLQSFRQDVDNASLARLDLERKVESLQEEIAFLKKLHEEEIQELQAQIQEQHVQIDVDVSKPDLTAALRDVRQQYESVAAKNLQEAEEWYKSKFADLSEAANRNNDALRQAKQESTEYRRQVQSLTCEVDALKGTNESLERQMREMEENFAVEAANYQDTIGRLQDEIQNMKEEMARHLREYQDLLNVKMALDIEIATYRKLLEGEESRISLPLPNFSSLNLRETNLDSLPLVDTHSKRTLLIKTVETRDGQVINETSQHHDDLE
UniProt P08238: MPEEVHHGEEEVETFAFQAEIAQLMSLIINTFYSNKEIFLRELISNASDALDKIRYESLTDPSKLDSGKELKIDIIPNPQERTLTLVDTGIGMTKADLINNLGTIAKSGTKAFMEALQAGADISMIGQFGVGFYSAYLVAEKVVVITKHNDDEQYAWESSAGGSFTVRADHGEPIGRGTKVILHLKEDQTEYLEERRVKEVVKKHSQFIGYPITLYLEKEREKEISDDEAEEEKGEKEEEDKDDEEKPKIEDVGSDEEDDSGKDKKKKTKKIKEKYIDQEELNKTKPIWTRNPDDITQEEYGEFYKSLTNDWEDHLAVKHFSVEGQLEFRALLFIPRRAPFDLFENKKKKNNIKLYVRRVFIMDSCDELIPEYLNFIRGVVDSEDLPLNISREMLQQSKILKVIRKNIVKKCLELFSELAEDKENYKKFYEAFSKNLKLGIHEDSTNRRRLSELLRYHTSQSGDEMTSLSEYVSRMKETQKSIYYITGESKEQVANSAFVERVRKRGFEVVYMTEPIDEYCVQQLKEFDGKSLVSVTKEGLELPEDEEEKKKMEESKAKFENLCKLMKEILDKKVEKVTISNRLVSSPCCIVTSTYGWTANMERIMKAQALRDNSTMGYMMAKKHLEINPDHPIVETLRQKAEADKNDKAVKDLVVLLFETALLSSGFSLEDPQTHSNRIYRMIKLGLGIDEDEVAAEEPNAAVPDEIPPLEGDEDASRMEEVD
UniProt P41219: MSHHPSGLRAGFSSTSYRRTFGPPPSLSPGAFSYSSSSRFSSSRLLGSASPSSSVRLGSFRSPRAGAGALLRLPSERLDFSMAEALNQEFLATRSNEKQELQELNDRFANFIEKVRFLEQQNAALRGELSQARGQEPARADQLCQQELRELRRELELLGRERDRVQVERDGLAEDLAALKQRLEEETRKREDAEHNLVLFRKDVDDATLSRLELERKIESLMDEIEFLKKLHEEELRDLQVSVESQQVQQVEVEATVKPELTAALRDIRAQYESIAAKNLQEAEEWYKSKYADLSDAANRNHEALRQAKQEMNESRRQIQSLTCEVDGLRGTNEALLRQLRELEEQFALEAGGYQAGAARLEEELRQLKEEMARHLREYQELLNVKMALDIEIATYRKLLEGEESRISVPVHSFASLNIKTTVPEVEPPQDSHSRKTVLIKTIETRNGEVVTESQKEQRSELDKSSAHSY

Assay [2] has as its target T2, FLAG-tagged full-length gigaxonin (GIG) (UniProt Q9H2C0).
T2 sequence: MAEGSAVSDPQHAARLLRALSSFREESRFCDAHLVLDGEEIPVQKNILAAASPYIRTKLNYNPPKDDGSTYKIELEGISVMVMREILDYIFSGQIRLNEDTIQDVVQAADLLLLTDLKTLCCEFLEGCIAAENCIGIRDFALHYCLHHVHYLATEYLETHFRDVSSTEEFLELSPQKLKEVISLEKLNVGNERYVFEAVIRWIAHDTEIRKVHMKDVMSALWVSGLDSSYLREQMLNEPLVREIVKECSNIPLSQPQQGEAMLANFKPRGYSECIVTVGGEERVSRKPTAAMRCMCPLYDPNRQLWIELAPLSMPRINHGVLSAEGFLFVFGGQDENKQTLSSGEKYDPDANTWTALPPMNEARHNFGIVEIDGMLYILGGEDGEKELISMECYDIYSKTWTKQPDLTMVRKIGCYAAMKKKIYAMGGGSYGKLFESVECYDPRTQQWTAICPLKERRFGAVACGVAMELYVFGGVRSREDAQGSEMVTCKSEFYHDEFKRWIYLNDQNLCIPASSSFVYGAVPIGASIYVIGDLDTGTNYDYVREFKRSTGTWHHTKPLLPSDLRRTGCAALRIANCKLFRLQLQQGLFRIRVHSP

Assay [3] has as its target T3, FLAG-tagged full-length gigaxonin (GIG), Q9H2C0.
T3 chain: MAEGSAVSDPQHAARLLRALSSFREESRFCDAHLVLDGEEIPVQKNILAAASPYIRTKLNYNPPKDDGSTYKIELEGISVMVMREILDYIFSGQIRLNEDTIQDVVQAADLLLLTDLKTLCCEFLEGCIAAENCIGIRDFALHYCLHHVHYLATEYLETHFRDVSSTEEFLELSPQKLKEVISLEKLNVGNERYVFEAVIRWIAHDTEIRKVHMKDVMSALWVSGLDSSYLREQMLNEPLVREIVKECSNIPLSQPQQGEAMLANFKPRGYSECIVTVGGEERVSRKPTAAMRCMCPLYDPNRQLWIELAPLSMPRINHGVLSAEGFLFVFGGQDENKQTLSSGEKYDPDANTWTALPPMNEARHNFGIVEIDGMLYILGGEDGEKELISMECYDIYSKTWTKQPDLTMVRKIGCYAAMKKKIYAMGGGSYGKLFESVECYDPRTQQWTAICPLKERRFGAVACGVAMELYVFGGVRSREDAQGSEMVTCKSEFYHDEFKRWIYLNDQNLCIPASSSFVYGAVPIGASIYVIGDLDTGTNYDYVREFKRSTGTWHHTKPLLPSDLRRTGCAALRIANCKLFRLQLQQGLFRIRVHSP
The note with it: remark: other sources report otherwise.

The results in this text go back to PMC4604155.

Results are given in words; binding and its absence hold for the method and conditions named. Binding seen in cells or lysates may run through a third protein. Here binding means that the protein was enriched with, or labelled near, the bait; the list need not be complete. For part of these data: No binding means not detected with the bait. For part of these data: Sequences can lack the tags named with a protein.

“HSP90AA1 (heat shock protein 90 alpha) (from UniProt P07900 1-732)”: the binding entry in assay [1] and in assay [2] was “binds” each time.

For “E3 ubiquitin protein ligase MYC binding protein 2 (MYCBP2) (from UniProt O75592 1-4678) (enzyme)”, the binding entry in assay [1] and in assay [2] was “binds” in each case. Regarding “vimentin (VIM) (from UniProt P08670 1-466)”, the binding entry in assay [1] is listed as “no binding”; in assay [2], “binds”. In the same order, the values of “HSP90AB1 (heat shock protein 90 beta) (from UniProt P08238 1-724)” are “binds” and “binds”. With “peripherin (PRPH), endogenous (from UniProt P41219 1-470)”, the binding result in assay [1] is “no binding”; in assay [2], “binds”.

B1: lamin B2 (protein, UniProt Q03252 1-620)
chain: MSPPSPGRRREQRRPRAAATMATPLPGRAGGPATPLSPTRLSRLQEKEELRELNDRLAHYIDRVRALELENDRLLLKISEKEEVTTREVSGIKALYESELADARRVLDETARERARLQIEIGKLRAELDEVNKSAKKREGELTVAQGRVKDLESLFHRSEVELAAALSDKRGLESDVAELRAQLAKAEDGHAVAKKQLEKETLMRVDLENRCQSLQEELDFRKSVFEEEVRETRRRHERRLVEVDSSRQQEYDFKMAQALEELRSQHDEQVRLYKLELEQTYQAKLDSAKLSSDQNDKAASAAREELKEARMRLESLSYQLSGLQKQASAAEDRIRELEEAMAGERDKFRKMLDAKEQEMTEMRDVMQQQLAEYQELLDVKLALDMEINAYRKLLEGEEERLKLSPSPSSRVTVSRATSSSSGSLSATGRLGRSKRKRLEVEEPLGSGPSVLGTGTGGSGGFHLAQQASASGSVSIEEIDLEGKFVQLKNNSDKDQSLGNWRIKRQVLEGEEIAYKFTPKYILRAGQMVTVWAAGAGVAHSPPSTLVWKGQSSWGTGESFRTVLVNADGEEVAMRTVKKSSVMRENENGEEEEEEAEFGEEDLFHQQGDPRTTSRGCYVM
Regarding B1, the binding result was “no binding” in assay [1] and “binds” in assay [2].

B2: neurofilament light chain (NEFL) (protein, UniProt P07196 1-543)
chain: MSSFSYEPYYSTSYKRRYVETPRVHISSVRSGYSTARSAYSSYSAPVSSSLSVRRSYSSSSGSLMPSLENLDLSQVAAISNDLKSIRTQEKAQLQDLNDRFASFIERVHELEQQNKVLEAELLVLRQKHSEPSRFRALYEQEIRDLRLAAEDATNEKQALQGEREGLEETLRNLQARYEEEVLSREDAEGRLMEARKGADEAALARAELEKRIDSLMDEISFLKKVHEEEIAELQAQIQYAQISVEMDVTKPDLSAALKDIRAQYEKLAAKNMQNAEEWFKSRFTVLTESAAKNTDAVRAAKDEVSESRRLLKAKTLEIEACRGMNEALEKQLQELEDKQNADISAMQDTINKLENELRTTKSEMARYLKEYQDLLNVKMALDIEIAAYRKLLEGEETRLSFTSVGSITSGYSQSSQVFGRSAYGGLQTSSYLMSTRSFPSYYTSHVQEEQIEVEETIEAAKAEEAKDEPPSEGEAEEEEKDKEEAEEEEAAEEEEAAKEESEEAKEEEEGGEGEEGEETKEAEEEEKKVEGAGEEQAAKKKD
Regarding B2, the binding result in assay [1] is recorded as “no binding”; in assay [2], “binds”.

B3: keratin 82 (protein, UniProt Q9NSB4 1-513)
chain: MSYHSFQPGSRCGSQSFSSYSAVMPRMVTHYAVSKGPCRPGGGRGLRALGCLGSRSLCNVGFGRPRVASRCGGTLPGFGYRLGATCGPSACITPVTINESLLVPLALEIDPTVQRVKRDEKEQIKCLNNRFASFINKVRFLEQKNKLLETKWNFMQQQRCCQTNIEPIFEGYISALRRQLDCVSGDRVRLESELCSLQAALEGYKKKYEEELSLRPCVENEFVALKKDVDTAFLMKADLETNAEALVQEIDFLKSLYEEEICLLQSQISETSVIVKMDNSRELDVDGIIAEIKAQYDDIASRSKAEAEAWYQCRYEELRVTAGNHCDNLRNRKNEILEMNKLIQRLQQETENVKAQRCKLEGAIAEAEQQGEAALNDAKCKLAGLEEALQKAKQDMACLLKEYQEVMNSKLGLDIEIATYRRLLEGEEHRLCEGIGPVNISVSSSKGAFLYEPCGVSTPVLSTGVLRSNGGCSIVGTGELYVPCEPQGLLSCGSGRKSSMTLGAGGSSPSHKH
Take B3: the figures for the binding result in assay [1] and in assay [2] were “no binding” and “binds”, respectively.

B4: α-internexin (INA) (protein, UniProt Q16352 1-499)
chain: MSFGSEHYLCSSSSYRKVFGDGSRLSARLSGAGGAGGFRSQSLSRSNVASSAACSSASSLGLGLAYRRPPASDGLDLSQAAARTNEYKIIRTNEKEQLQGLNDRFAVFIEKVHQLETQNRALEAELAALRQRHAEPSRVGELFQRELRDLRAQLEEASSARSQALLERDGLAEEVQRLRARCEEESRGREGAERALKAQQRDVDGATLARLDLEKKVESLLDELAFVRQVHDEEVAELLATLQASSQAAAEVDVTVAKPDLTSALREIRAQYESLAAKNLQSAEEWYKSKFANLNEQAARSTEAIRASREEIHEYRRQLQARTIEIEGLRGANESLERQILELEERHSAEVAGYQDSIGQLENDLRNTKSEMARHLREYQDLLNVKMALDIEIAAYRKLLEGEETRFSTSGLSISGLNPLPNPSYLLPPRILSATTSKVSSTGLSLKKEEEEEEASKVASKKTSQIGESFEEILEETVISTKKTEKSNIEETTISSQKI
As to B4, the binding result in assay [1] is on record as “no binding”; in assay [2], “binds”.

B5: tubulin-folding co-factor B (TBCB), Q99426 1-244 (protein)
chain: MEVTGVSAPTVTVFISSSLNTFRSEKRYSRSLTIAEFKCKLELLVGSPASCMELELYGVDDKFYSKLDQEDALLGSYPVDDGCRIHVIDHSGARLGEYEDVSRVEKYTISQEAYDQRQDTVRSFLKRSKLGRYNEEERAQQEAEAAQRLAEEKAQASSIPVGSRCEVRAAGQSPRRGTVMYVGLTDFKPGYWIGVRYDEPLGKNDGSVNGKRYFECQAKYGAFVKPAVVTVGDFPEEDYGLDEI
B5: in assay [3], the binding result is “no binding”.

B6: neurofilament heavy chain (NEFH) (protein, UniProt P12036 1-1020)
chain: MMSFGGADALLGAPFAPLHGGGSLHYALARKGGAGGTRSAAGSSSGFHSWTRTSVSSVSASPSRFRGAGAASSTDSLDTLSNGPEGCMVAVATSRSEKEQLQALNDRFAGYIDKVRQLEAHNRSLEGEAAALRQQQAGRSAMGELYEREVREMRGAVLRLGAARGQLRLEQEHLLEDIAHVRQRLDDEARQREEAEAAARALARFAQEAEAARVDLQKKAQALQEECGYLRRHHQEEVGELLGQIQGSGAAQAQMQAETRDALKCDVTSALREIRAQLEGHAVQSTLQSEEWFRVRLDRLSEAAKVNTDAMRSAQEEITEYRRQLQARTTELEALKSTKDSLERQRSELEDRHQADIASYQEAIQQLDAELRNTKWEMAAQLREYQDLLNVKMALDIEIAAYRKLLEGEECRIGFGPIPFSLPEGLPKIPSVSTHIKVKSEEKIKVVEKSEKETVIVEEQTEETQVTEEVTEEEEKEAKEEEGKEEEGGEEEEAEGGEEETKSPPAEEAASPEKEAKSPVKEEAKSPAEAKSPEKEEAKSPAEVKSPEKAKSPAKEEAKSPPEAKSPEKEEAKSPAEVKSPEKAKSPAKEEAKSPAEAKSPEKAKSPVKEEAKSPAEAKSPVKEEAKSPAEVKSPEKAKSPTKEEAKSPEKAKSPEKEEAKSPEKAKSPVKAEAKSPEKAKSPVKAEAKSPEKAKSPVKEEAKSPEKAKSPVKEEAKSPEKAKSPVKEEAKTPEKAKSPVKEEAKSPEKAKSPEKAKTLDVKSPEAKTPAKEEARSPADKFPEKAKSPVKEEVKSPEKAKSPLKEDAKAPEKEIPKKEEVKSPVKEEEKPQEVKVKEPPKKAEEEKAPATPKTEEKKDSKKEEAPKKEAPKPKVEEKKEPAVEKPKESKVEAKKEEAEDKKKVPTPEKEAPAKVEVKEDAKPKEKTEVAKKEPDDAKAKEPSKPAEKKEAAPEKKDTKEEKAKKPEEKPKTEAKAKEDDKTLSKEPSKPKAEKAEKSSSTDQKDSKPPEKATEDKAAKGK
On to B6, for which the values for the binding entry in assay [1] and in assay [2] were “no binding” and “binds”, respectively.
